# Results as given in the supplement of paper PMC9744312.
# Where a name gives a salt, the structure may show the parent alone. This is one part of the list. This is a noisy data set.
# Tested on: Peyronie's disease tunica albuginea primary fibroblasts
# Assay: inhibition of TGF-beta1-induced alpha-SMA expression (myofibroblast transformation), relative to TGF-beta1-only and untreated controls; higher = stronger inhibition of myofibroblast transformation
# Details: 10 µM; TGF-beta1 10 ng/mL; 72 h
row,Structure (SMILES),inhibition of TGF-beta1-induced alpha-SMA expression [%]
1,CN/C(=N\CCSCc1nc[nH]c1C)NC#N [Cimetidine],25.4
2,CC(C)N(CCCCOCC(=O)NS(C)(=O)=O)c1cnc(-c2ccccc2)c(-c2ccccc2)n1 [Selexipag],14.4
3,NC(=O)c1ccc(I)c([N+](=O)[O-])c1 [Iniparib (BSI-201)],-12.9
4,C#C[C@]1(O)CC[C@H]2[C@@H]3CCC4=CC(=O)CC[C@@H]4[C@H]3C(=C)C[C@@]21CC [Etonogestrel],27.9
5,O=C(O)c1cc(/N=N/c2ccc(S(=O)(=O)Nc3ccccn3)cc2)ccc1O [Sulfasalazine],-14.8
6,CC(=O)c1c(C)c2cnc(Nc3ccc(N4CCNCC4)cn3)nc2n(C2CCCC2)c1=O,> 100
7,COc1nccnc1NS(=O)(=O)c1ccc(N)cc1 [Sulfalene(SMPZ)],19.3
8,Oc1cccc(O)c1 [Resorcinol],-10.8
9,C[C@@H](O[C@H]1OCCN(Cc2n[nH]c(=O)[nH]2)[C@H]1c1ccc(F)cc1)c1cc(C(F)(F)F)cc(C(F)(F)F)c1 [Aprepitant],45.6
10,Cc1cc(O)cc(C)c1Cl [Chloroxylenol],-3.65
11,CCCCN(CCCC)CC(O)c1cc(Cl)cc2c1-c1ccc(Cl)cc1/C2=C/c1ccc(Cl)cc1 (stereo not given) [Lumefantrine],3.03
12,Cc1cn(-c2cc(NC(=O)c3ccc(C)c(Nc4nccc(-c5cccnc5)n4)c3)cc(C(F)(F)F)c2)cn1 [Nilotinib hydrochloride],1.08
13,Cc1cn(-c2cc(NC(=O)c3ccc(C)c(Nc4nccc(-c5cccnc5)n4)c3)cc(C(F)(F)F)c2)cn1 [Nilotinib (AMN-107)],-6.48
14,COC(=O)CCC(=O)CN [Methyl Aminolevulinate Hydrochloride],9.88
15,CS(=O)(=O)c1cccc(C[C@H](NC(=O)c2c(Cl)cc3c(c2Cl)CCN(C(=O)c2ccc4ccoc4c2)C3)C(=O)O)c1 [Lifitegrast],-1.97
16,O=S(=O)(O)Oc1ccc(C(c2ccc(OS(=O)(=O)O)cc2)c2ccccn2)cc1 [Sodium Picosulfate],-15.4
17,NC(=O)CC[C@H](N)C(=O)O [L-Glutamine],-1.8
18,Cc1cc2c(s1)Nc1ccccc1N=C2N1CCN(C)CC1 [Olanzapine],-3.97
19,CNC(=O)c1ccc(Nc2ncc(C(F)(F)F)c(NCc3nccnc3N(C)S(C)(=O)=O)n2)cc1,36
20,Cc1ccc(NC(=O)C2(c3ccc4c(c3)OC(F)(F)O4)CC2)nc1-c1cccc(C(=O)O)c1 [VX-809 (Lumacaftor)],77.1
21,OCCOc1ccc(/C(=C(/CCCl)c2ccccc2)c2ccccc2)cc1 [Ospemifene],10.9
22,CC(C)OC(=O)C(C)(C)Oc1ccc(C(=O)c2ccc(Cl)cc2)cc1 [Fenofibrate],-3.18
23,CCN(CC)CCOC(=O)c1ccc(N)cc1 [Procaine],8.32
24,CCN(CC)CCOC(=O)c1ccc(N)cc1 [Procaine HCl],19.5

row,Structure (SMILES),inhibition of TGF-beta1-induced alpha-SMA expression [%]
1,CC[C@H](C)C(=O)O[C@H]1C[C@@H](C)C=C2C=C[C@H](C)[C@H](CC[C@@H]3C[C@@H](O)CC(=O)O3)[C@H]21 [Lovastatin],100
2,Clc1ccc(C(Cn2ccnc2)OCc2ccc(Sc3ccccc3)cc2)c(Cl)c1 (stereo not given) [Fenticonazole Nitrate],5.48
3,C[C@@H](c1nc(-c2ccc(C#N)cc2)cs1)[C@](O)(Cn1cncn1)c1cc(F)ccc1F [Isavuconazole],15.5
4,C[C@]1(c2nc3c(C(N)=O)cccc3[nH]2)CCCN1 [Veliparib (ABT-888)],-46.6
5,CC(=O)N[C@@H](CS)C(=O)O [Acetylcysteine],1.47
6,CC(=O)O[C@H]1C[C@@]2(C)[C@@H](C[C@@H](O)[C@H]3[C@@]4(C)CC[C@@H](O)[C@@H](C)[C@@H]4CC[C@@]32C)/C1=C(\CCC=C(C)C)C(=O)O [Fusidate Sodium],-26.3
7,COc1cc(C2Oc3cc([C@H]4Oc5cc(O)cc(O)c5C(=O)[C@@H]4O)ccc3OC2CO)ccc1O (stereo not given in full) [Silibinin],23.7
8,CN(C)CCn1nnnc1SCC1=C(C(=O)O)N2C(=O)[C@@H](NC(=O)Cc3csc(N)n3)[C@H]2SC1 [Cefotiam hydrochloride],11.2
9,CNC[C@H](O)[C@@H](O)[C@H](O)[C@H](O)CO [Meglumine],48.5
10,NCCCC(O)(P(=O)(O)O)P(=O)(O)O [Alendronate sodium trihydrate],50.7
11,N.N.O=C([O-])C[O-].[Pt+2] [Nedaplatin],61
12,COC(=O)N[C@H](C(=O)N[C@@H](Cc1ccccc1)[C@@H](O)CN(Cc1ccc(-c2ccccn2)cc1)NC(=O)[C@@H](NC(=O)OC)C(C)(C)C)C(C)(C)C [Atazanavir Sulfate],-14.1
13,COC(=O)N[C@H](C(=O)N[C@@H](Cc1ccccc1)[C@@H](O)CN(Cc1ccc(-c2ccccn2)cc1)NC(=O)[C@@H](NC(=O)OC)C(C)(C)C)C(C)(C)C [Atazanavir],10.1
14,[O-][n+]1cccc(CO)c1 [Mepiroxol],29.4
15,COc1ccc(C[C@H](N)C(=O)N[C@H]2[C@@H](O)[C@H](n3cnc4c(N(C)C)ncnc43)O[C@@H]2CO)cc1 [Puromycin 2HCl],> 100
16,CCC[S+]([O-])c1ccc2[nH]c(NC(=O)OC)nc2c1 (stereo not given) [Albendazole Oxide],33.9
17,NC(=O)OCC(COC(N)=O)c1ccccc1 [Felbamate],2.92
18,Cc1ccnc(NS(=O)(=O)c2ccc(N)cc2)n1 [Sulfamerazine],21.3
19,CC(C)n1c(/C=C/C(O)CC(O)CC(=O)O)c(-c2ccc(F)cc2)c2ccccc21 (stereo not given) [Fluvastatin Sodium],> 100
20,O=c1ccn([C@@H]2O[C@H](CO)[C@@H](O)[C@H]2O)c(=O)[nH]1 [Uridine],-0.35
21,CC(C)(C)c1ccc(C(=O)CCCN2CCC(OC(c3ccccc3)c3ccccc3)CC2)cc1 [Ebastine],> 100
22,C[C@H](Cn1cnc2c(N)ncnc21)OCP(=O)(O)O [Tenofovir],18.5
23,CCCCNc1cc(C(=O)O)cc(S(N)(=O)=O)c1Oc1ccccc1 [Bumetanide],-19.6
24,CCOC(=O)[C@H](CCc1ccccc1)N[C@@H](C)C(=O)N(CC(=O)O)C1Cc2ccccc2C1 [Delapril Hydrochloride],3.29

row,Structure (SMILES),inhibition of TGF-beta1-induced alpha-SMA expression [%]
1,Cn1cc(C(=O)[C@@H]2CCc3[nH]cnc3C2)c2ccccc21 [Ramosetron Hydrochloride],7.79
2,CC(C)(C)c1nc(-c2cccc(NS(=O)(=O)c3c(F)cccc3F)c2F)c(-c2ccnc(N)n2)s1 [Dabrafenib Mesylate],91.5
3,CC(C)(C)c1nc(-c2cccc(NS(=O)(=O)c3c(F)cccc3F)c2F)c(-c2ccnc(N)n2)s1,88.7
4,C[C@H]1O[C@@H](n2cc(F)c(=O)[nH]c2=O)[C@H](O)[C@@H]1O [Doxifluridine],11.3
5,CC(=O)CCCCn1c(=O)c2c(ncn2C)n(C)c1=O [Pentoxifylline],11.3
6,CN1C(=O)OC(C)(C)C1=O [Trimethadione],12
7,Nc1c(CC(=O)O)cccc1C(=O)c1ccc(Br)cc1 [Bromfenac Sodium],58.4
8,CCCC(CCC)C(=O)O[C@H]1C[C@H]2CC[C@@H](C1)[N+]2(C)C [Anisotropine Methylbromide],13.1
9,C[C@H](Cc1cc2c(c(C(N)=O)c1)N(CCCO)CC2)NCCOc1ccccc1OCC(F)(F)F [Silodosin],61.2
10,Cc1onc(-c2c(F)cccc2Cl)c1C(=O)N[C@@H]1C(=O)N2[C@@H]1SC(C)(C)[C@@H]2C(=O)O [Flucloxacillin sodium],-7.01
11,O=C(NCCN1CCOCC1)c1ccc(Cl)cc1,-15.9
12,COc1c(C)c2c(c(O)c1C/C=C(\C)CCC(=O)O)C(=O)OC2 [Mycophenolic acid],14.7
13,NS(=O)(=O)c1cc(Cl)c(Cl)c(S(N)(=O)=O)c1 [Dichlorphenamide (Diclofenamide)],55.6
14,CCCCCNC(=N)N/N=C/c1c[nH]c2ccc(OC)cc12 [Tegaserod Maleate],> 100
15,CC1(C)C[C@@H]1C(=O)N/C(=C\CCCCSC[C@H](N)C(=O)O)C(=O)O [Cilastatin],21.9
16,CCCCCC(=O)O[C@]1(C(C)=O)CC[C@H]2[C@@H]3CCC4=CC(=O)CC[C@]4(C)[C@H]3CC[C@@]21C [Hydroxyprogesterone caproate],14.8
17,OC(c1cc(C(F)(F)F)nc2c(C(F)(F)F)cccc12)C1CCCCN1 (stereo not given) [Mefloquine HCl],> 100
18,CC[C@H]1OC(=O)C[C@@H](O)[C@H](C)[C@@H](O[C@@H]2O[C@H](C)[C@@H](O)[C@H](N(C)C)[C@H]2O)[C@@H](CCN2C[C@H](C)C[C@H](C)C2)C[C@@H](C)C(=O)/C=C/C(C)=C/[C@@H]1CO[C@@H]1O[C@H](C)[C@@H](O)[C@@H](OC)[C@H]1OC [Tilmicosin phosphate],31.5
19,CC[C@H]1OC(=O)C[C@@H](O)[C@H](C)[C@@H](O[C@@H]2O[C@H](C)[C@@H](O)[C@H](N(C)C)[C@H]2O)[C@@H](CCN2C[C@H](C)C[C@H](C)C2)C[C@@H](C)C(=O)/C=C/C(C)=C/[C@@H]1CO[C@@H]1O[C@H](C)[C@@H](O)[C@@H](OC)[C@H]1OC [Tilmicosin],> 100
20,CNCCCC12CCC(c3ccccc31)c1ccccc12 [Maprotiline HCl],44.6
21,CO/N=C(\C(=O)N[C@@H]1C(=O)N2C(C(=O)[O-])=C(C[N+]3(C)CCCC3)CS[C@H]12)c1csc(N)n1 [Cefepime Dihydrochloride Monohydrate],-0.906
22,C[C@]12C=CC(=O)C=C1CC[C@H]1[C@@H]3C[C@@H](O)[C@](O)(C(=O)CO)[C@@]3(C)C[C@H](O)[C@@]12F [Triamcinolone],81.8

# Given with tabs: entries from further up
row	Structure (SMILES)	inhibition of TGF-beta1-induced alpha-SMA expression [%]
24	CCOC(=O)[C@H](CCc1ccccc1)N[C@@H](C)C(=O)N(CC(=O)O)C1Cc2ccccc2C1 [Delapril Hydrochloride]	3.29
1	Cn1cc(C(=O)[C@@H]2CCc3[nH]cnc3C2)c2ccccc21 [Ramosetron Hydrochloride]	7.79
2	CC(C)(C)c1nc(-c2cccc(NS(=O)(=O)c3c(F)cccc3F)c2F)c(-c2ccnc(N)n2)s1 [Dabrafenib Mesylate]	91.5
3	CC(C)(C)c1nc(-c2cccc(NS(=O)(=O)c3c(F)cccc3F)c2F)c(-c2ccnc(N)n2)s1	88.7
4	C[C@H]1O[C@@H](n2cc(F)c(=O)[nH]c2=O)[C@H](O)[C@@H]1O [Doxifluridine]	11.3
5	CC(=O)CCCCn1c(=O)c2c(ncn2C)n(C)c1=O [Pentoxifylline]	11.3
6	CN1C(=O)OC(C)(C)C1=O [Trimethadione]	12
7	Nc1c(CC(=O)O)cccc1C(=O)c1ccc(Br)cc1 [Bromfenac Sodium]	58.4
8	CCCC(CCC)C(=O)O[C@H]1C[C@H]2CC[C@@H](C1)[N+]2(C)C [Anisotropine Methylbromide]	13.1
9	C[C@H](Cc1cc2c(c(C(N)=O)c1)N(CCCO)CC2)NCCOc1ccccc1OCC(F)(F)F [Silodosin]	61.2
10	Cc1onc(-c2c(F)cccc2Cl)c1C(=O)N[C@@H]1C(=O)N2[C@@H]1SC(C)(C)[C@@H]2C(=O)O [Flucloxacillin sodium]	-7.01
11	O=C(NCCN1CCOCC1)c1ccc(Cl)cc1	-15.9
12	COc1c(C)c2c(c(O)c1C/C=C(\C)CCC(=O)O)C(=O)OC2 [Mycophenolic acid]	14.7
13	NS(=O)(=O)c1cc(Cl)c(Cl)c(S(N)(=O)=O)c1 [Dichlorphenamide (Diclofenamide)]	55.6
14	CCCCCNC(=N)N/N=C/c1c[nH]c2ccc(OC)cc12 [Tegaserod Maleate]	> 100
15	CC1(C)C[C@@H]1C(=O)N/C(=C\CCCCSC[C@H](N)C(=O)O)C(=O)O [Cilastatin]	21.9
16	CCCCCC(=O)O[C@]1(C(C)=O)CC[C@H]2[C@@H]3CCC4=CC(=O)CC[C@]4(C)[C@H]3CC[C@@]21C [Hydroxyprogesterone caproate]	14.8
17	OC(c1cc(C(F)(F)F)nc2c(C(F)(F)F)cccc12)C1CCCCN1 (stereo not given) [Mefloquine HCl]	> 100
18	CC[C@H]1OC(=O)C[C@@H](O)[C@H](C)[C@@H](O[C@@H]2O[C@H](C)[C@@H](O)[C@H](N(C)C)[C@H]2O)[C@@H](CCN2C[C@H](C)C[C@H](C)C2)C[C@@H](C)C(=O)/C=C/C(C)=C/[C@@H]1CO[C@@H]1O[C@H](C)[C@@H](O)[C@@H](OC)[C@H]1OC [Tilmicosin phosphate]	31.5
